# Results reported in PubChem BioAssay AID720711 (National Center for Advancing Translational Sciences (NCATS), 2013).
# By UniProt entry, the sequences of proteins in these tests, tags left out.
# UniProt Q8WZA2, whole entry, looked up: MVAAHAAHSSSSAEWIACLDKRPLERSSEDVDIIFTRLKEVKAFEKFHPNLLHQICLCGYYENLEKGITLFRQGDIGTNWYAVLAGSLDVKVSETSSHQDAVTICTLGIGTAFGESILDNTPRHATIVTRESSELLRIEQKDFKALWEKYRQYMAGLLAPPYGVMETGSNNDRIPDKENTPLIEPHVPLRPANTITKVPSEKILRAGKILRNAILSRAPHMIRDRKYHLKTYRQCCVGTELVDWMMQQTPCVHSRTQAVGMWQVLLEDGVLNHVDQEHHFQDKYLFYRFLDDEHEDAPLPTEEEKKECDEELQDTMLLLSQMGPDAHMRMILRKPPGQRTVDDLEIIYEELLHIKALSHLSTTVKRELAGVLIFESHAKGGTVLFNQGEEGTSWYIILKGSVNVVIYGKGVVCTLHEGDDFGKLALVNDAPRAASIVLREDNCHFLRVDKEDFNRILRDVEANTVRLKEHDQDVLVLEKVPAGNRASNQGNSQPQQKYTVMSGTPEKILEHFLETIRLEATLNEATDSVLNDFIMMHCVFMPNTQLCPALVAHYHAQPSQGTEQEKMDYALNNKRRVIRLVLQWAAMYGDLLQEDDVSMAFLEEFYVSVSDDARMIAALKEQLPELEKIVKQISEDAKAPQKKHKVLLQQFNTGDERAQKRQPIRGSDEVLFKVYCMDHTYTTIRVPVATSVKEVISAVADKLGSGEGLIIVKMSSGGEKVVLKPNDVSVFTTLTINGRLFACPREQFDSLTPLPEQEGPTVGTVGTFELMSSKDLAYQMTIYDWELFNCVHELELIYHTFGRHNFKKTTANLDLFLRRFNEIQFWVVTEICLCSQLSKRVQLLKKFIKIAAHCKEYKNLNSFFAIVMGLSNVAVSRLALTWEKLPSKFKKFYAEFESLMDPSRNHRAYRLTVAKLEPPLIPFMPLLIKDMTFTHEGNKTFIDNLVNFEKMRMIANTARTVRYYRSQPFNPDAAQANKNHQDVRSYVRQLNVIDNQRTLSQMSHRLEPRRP
# Hit rate of the full screen: of about 360,000 compounds, about 290 (0.081%) were called active. The shares of active, inactive and inconclusive entries below differ from those in the screen. Calls follow the shape of the dose curve; as a rule, active = well fitted activation curve with a large enough effect; inconclusive = small, poorly fitted or top-dose-only effect; inactive = no such curve, though single readings can be large or run the other way. A potency beside an inconclusive call is a rough fit, not a confirmed value. Where a SMILES comes first, the peptide text is derived from it. The star is where a group is joined. Cbz = O=C(OCc1ccccc1)*
# Molecular target: Rap guanine nucleotide exchange factor 4 (Homo sapiens) (UniProt Q8WZA2)
# Assay: qHTS for Agonist of cAMP-regulated guanine nucleotide exchange factor 4 (EPAC2): primary screen; also: nearly all actives have a fitted effect of over 50% in size
# Conditions: biochemical qHTS; Potency: EPAC2 activation unless noted; activation: at 154 µM (top of the series), 100% = 6.5 mM cAMP response unless noted
# Outline: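 Each well held 100 nM EPAC2, 250 nM RAP1B-BODIPY-GDP and 50 uM GDP. Fluorescence, read at 5-min intervals to 30 min, was referenced to a 6.5 mM cAMP positive control.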
# Potency is read from the fitted curve at half-maximal effect.
SMILES,Potency,activation
CCOC(=O)/C(C#N)=C/c1ccc(N2CCN(Cc3ccccc3)CC2)cc1,active: 89.1 µM,
Oc1ccc2nnc3c(Br)cnn3c2c1,"inconclusive: 112 µM [activator, partial curve]",
CC1(C(=O)Nc2ccc3[nH]ncc3c2)CCN1C(=O)Cc1ccc(-c2ccccc2)cc1 (stereo not given),"inconclusive: 126 µM [activator, partial curve]",
COc1ccc([C@H]2CC(=O)C=C(c3cccc(F)c3OC)C2)cc1,"inconclusive: 56.2 µM [activator, full curve, poor fit]",
CCc1c(C)sc(NC(=O)c2cc(C)no2)c1C#N,"inconclusive: 100 µM [activator, partial curve]",
CCN1CCc2c(sc(NC(=O)Nc3ccc(Cl)c(Cl)c3)c2C(N)=O)C1,active: 100 µM,
Cc1ccc(C(=O)NC(=S)NNC(=O)c2ccccc2)cc1,,inactive: 6.48%
Cc1ccc(NC(=O)CSCC(=O)OC(C)C(=O)Nc2ccc(S(N)(=O)=O)cc2)c(C)c1 (stereo not given),,inactive: 0.686%
C[n+]1ccc(/C=C/c2c[nH]c3ccc(F)cc23)cc1,"inconclusive: 112 µM [activator, single point]",
CCc1ccc(Nc2n[n+](-c3ccccc3)c(-c3ccc(N(CC)CC)cc3)s2)cc1,"inconclusive: 63.1 µM [activator, partial curve]",
Cc1cccc(N2CCN(C(=O)CCC(=O)N3CC(C)Oc4ccc(C)cc43)CC2C)c1 (stereo not given),"inconclusive: 112 µM [activator, partial curve]",
O=C(N/N=C/c1cccnc1)c1cccc(NC(=O)c2ccc(Cl)cc2)c1,"inconclusive: 100 µM [activator, partial curve]",
CC(C)[C@H](NC(N)=O)C(=O)Nc1ccc(OCc2ccccc2)cc1,"inconclusive: 35.5 µM [activator, single point]",
Cc1ccc[n+](-c2nc([O-])sc2C=O)c1,"inconclusive: 89.1 µM [activator, partial curve]",
CCN(CC)c1ccc2c(c1)oc(=O)c1c(Cl)cc(=O)oc12,active: 89.1 µM,
O=C(CSc1nnc(Cc2cccs2)n1-c1ccccc1)Nc1ccc2c(c1)OCCO2,"inconclusive: 10 µM [activator, partial curve]",
CCCCn1nnnc1SCC(=O)Nc1sc2c(c1C#N)CCCC2,,inactive: 2.61%
c1coc(CNc2nc3sc4c(c3c3ncnn23)CCCC4)c1,"inconclusive: 100 µM [activator, partial curve]",
O=C(Nc1ccc(F)cc1)C(c1ccncc1)N1CCN(CC(=O)N2CCCC2)CC1 (stereo not given),,inactive: -2.03%
COC(=O)CCC(NC(=O)OCc1ccccc1)C(=O)NC(CC(C)C)C(=O)OC (stereo not given) (Cbz-Glu(OMe)-Leu-OMe; configuration not given here),"inconclusive: 112 µM [activator, single point]",
Cc1cc(/C=C2\SC(=S)N(C)C2=O)c(C)n1-c1ccccc1O,"inconclusive: 63.1 µM [activator, partial curve]",
COc1ccc(CNCC(O)(c2ccc(F)cc2)c2ccc(F)cc2)cc1,,inactive: 11%
CN(c1ccccc1)S(=O)(=O)c1cccc(NC(=O)COc2cccc([N+](=O)[O-])c2)c1,"inconclusive: 63.1 µM [activator, partial curve]",
COc1ccc(OCC(=O)Nc2ccc(S(=O)(=O)N3CCCCCC3)cc2)cc1,"inconclusive: 126 µM [activator, single point]",

# Three compounds out of the list, sorted by molar mass, high to low.
SMILES,Potency,activation
O=C(CSc1nnc(Cc2cccs2)n1-c1ccccc1)Nc1ccc2c(c1)OCCO2,"inconclusive: 10 µM [activator, partial curve]",
COc1ccc(CNCC(O)(c2ccc(F)cc2)c2ccc(F)cc2)cc1,,inactive: 11%
C[n+]1ccc(/C=C/c2c[nH]c3ccc(F)cc23)cc1,"inconclusive: 112 µM [activator, single point]",

# (continued)

SMILES,Potency,activation
Cc1oc2c(cc(NS(=O)(=O)c3ccc(C(C)C)cc3)c3ccccc32)c1C(=O)O,"inconclusive: 100 µM [activator, single point]",
CCC(C)[C@H](N)c1cn([C@@H](Cc2cc3ccccc3[nH]2)C(=O)N2CCNCC2)nn1 (stereo not given in full),,inactive: 3.62%
O=C(O)c1cc(-c2cccs2)nn1-c1cccc(Cl)c1,"inconclusive: 112 µM [activator, partial curve]",
C=CCn1c(-c2ccc(S(=O)(=O)N3CCOCC3)cc2)csc1=Nc1ccccc1,active: 7.94 µM,
C/C(=N/NC(=O)c1ccccn1)c1ccncc1,"inconclusive: 112 µM [activator, single point]",
COc1ccc(NC(=O)N(C)[C@H]2C[C@H]3c4[nH]c5ccccc5c4CCN3C(=O)[C@H]2[C@H](C)O)cc1,"inconclusive: 126 µM [activator, single point]",
COc1cc(NC(=O)CNC(=O)Cn2cnc3sc(C)c(C)c3c2=O)cc(OC)c1OC,,inactive: -0.449%
CCOC(=O)C1(CCCc2ccccc2)CCN(C2CCSCC2)CC1,,inactive: 5.71%
Oc1ccc(/C=N/Nc2ccnc3cc(Cl)ccc23)c(O)c1,"inconclusive: 112 µM [activator, partial curve]",
COCCNC(=S)N(CCc1c(C)[nH]c2ccc(F)cc12)Cc1cccs1,"inconclusive: 126 µM [activator, partial curve]",
O=c1nc2ccccc2c2n1CC(CN1CCN(c3ccccc3F)CC1)N2 (stereo not given),,inconclusive: -4.48% [activator]
OCC[n+]1ccc(/C=C/c2c[nH]c3ccccc23)cc1,"inconclusive: 112 µM [activator, single point]",
N#C/C(C(=O)NCCc1ccccc1)=C1/N=C(NC(=O)c2cccs2)c2ccccc21,"inconclusive: 31.6 µM [activator, partial curve]",
Cc1ccc(Cn2c(CCNc3nc(-c4ccc(Cl)c([N+](=O)[O-])c4)cs3)nc3cc(C(=O)NCCCO)ccc32)cc1,,inactive: 4%
CC(=O)NC1Sc2ccccc2N=C1c1ccccc1 (stereo not given),,inactive: 2.04%
Cc1ccc(S(=O)(=O)N(C)C[C@H]2Oc3c(NC(=O)Nc4cccc5ccccc45)cccc3C(=O)N([C@@H](C)CO)C[C@@H]2C)cc1,,inactive: -2.67%
Cc1cccc(NS(=O)(=O)c2ccc3c(c2)CCC(=O)N3)c1,inactive,
COc1ccc(CCNC(=O)C2CCCN(S(=O)(=O)c3cccc4nonc34)C2)cc1OC (stereo not given),"inconclusive: 126 µM [activator, single point]",
COC(=O)c1c(NC(=O)/C=C/c2ccc3c(c2)OCO3)sc(C)c1C,,inactive: 5.83%
COc1cc2c3nnc(-c4ccccc4)c-3cn(Cc3ccccc3F)c2cc1OC,"inconclusive: 89.1 µM [activator, partial curve]",
CCCCNC(=S)N1CCN(c2nc3ccccc3s2)CC1,,inactive: 4.43%
CN(C)c1ccc(C=Cc2nccc3ccccc23)cc1,"inconclusive: 100 µM [activator, partial curve]",
Cc1cc(C=O)c(C)n1-c1cc(C(=O)O)cc(C(=O)O)c1,,inactive: 0.32%
COc1ccc(C(=O)Nc2nc(-c3ccc([N+](=O)[O-])cc3)c(-c3ccc(OC)cc3)s2)cc1,active: 100 µM,

SMILES,Potency,activation
COc1ccc(NC(=O)Nc2cccc(C(F)(F)F)c2)cn1,"inconclusive: 50.1 µM [activator, single point]",
Nc1nc(N)c2c(ccc3c2ccn3Cc2cccc([N+](=O)[O-])c2)n1,"inconclusive: 56.2 µM [activator, partial curve]",
CC(=O)N1CCN(CC(=O)Nc2sccc2C#N)CC1,"inconclusive: 126 µM [activator, single point]",
CC(C)CCNS(=O)(=O)c1ccc(-c2ccc(S(=O)(=O)NCCC(C)C)cc2)cc1,,inactive: -6.69%
O=C(NCC1CC1)c1cccc2c1C(=O)c1ccc(N3CCCC3)cc1S2(=O)=O,"inconclusive: 56.2 µM [activator, full curve]",
CC(=O)c1ccc(NC(=O)CN2CCN(c3ccccc3)CC2)cc1,,inactive: 9.12%
O=[N+]([O-])/C=C/c1cn(Cc2ccccc2)c2ccccc12,"inconclusive: 100 µM [activator, partial curve]",
Cc1cccnc1NC(=O)Nc1cccc2ccccc12,"inconclusive: 112 µM [activator, single point]",
CC1=Nc2ccccc2/C1=C\c1nc(-c2ccc(F)cc2)oc1O,"inconclusive: 44.7 µM [activator, partial curve]",
CC(C)CCOc1ccc(C2(C)NC(=O)N(CN3CCOCC3)C2=O)cc1 (stereo not given),,"inconclusive: 56.3% [activator] [at 15.6 µM, 100% = 6.5 mM cAMP response]"
COc1ccc(C(O)c2nc(-c3cc(F)cc(F)c3)cs2)cc1 (stereo not given),"inconclusive: 112 µM [activator, partial curve]",
Cc1ccccc1C(=O)N=c1ccn(-c2nc3ccccc3nc2NS(=O)(=O)c2ccccc2)cc1,"inconclusive: 89.1 µM [activator, partial curve]",
CC(C)CNC(=S)NNC(=O)c1ccco1,,inactive: -3.17%
C[n+]1ccc(/C=C/c2c[nH]c3ccccc23)cc1,active: 100 µM,
Cc1ccc(S(=O)(=O)N2[C@@H](c3ccccc3)C(C(=O)O)=CC[C@H]2c2cccc(Cl)c2)cc1,"inconclusive: 126 µM [activator, single point]",
CCc1cccc(CC)c1N1C(=O)C2=C(SCCCS2)C1=O,active: 112 µM,
Cc1nnc(SCc2ccccc2)nc1-c1ccccc1,,inactive: 13.4%
CN(C)c1ccc(/C=C(\Cl)c2nc3ccccc3s2)cc1,"inconclusive: 126 µM [activator, single point]",
Cc1cc(Nc2ccccc2)n(-c2nc3ccccc3[nH]2)n1,active: 6.31 µM,
CCCCC(=O)N/N=C/c1ccc(Sc2cccc3cccnc23)o1,"inconclusive: 100 µM [activator, partial curve]",
C[C@@H]1CC=C[C@@H]2[C@H]1C(=O)N(Cc1ccccc1)[C@H]2c1ccccc1Br,,inactive: 8.48%
O=c1oc2ccccc2c2c1C(c1ccc(Cl)cc1)Nc1ccc3ccccc3c1-2 (stereo not given),,"inconclusive: 78.5% [activator] [at 15.6 µM, 100% = 6.5 mM cAMP response]"
